Experimental findings from PMC13486833 are described below.

Amino acid sequences for entries named in this document (tags omitted). A change or cut given only in a name is not applied to a line headed by its entry. Residues count along the entry.
UniProt Q15109, residues 23-342: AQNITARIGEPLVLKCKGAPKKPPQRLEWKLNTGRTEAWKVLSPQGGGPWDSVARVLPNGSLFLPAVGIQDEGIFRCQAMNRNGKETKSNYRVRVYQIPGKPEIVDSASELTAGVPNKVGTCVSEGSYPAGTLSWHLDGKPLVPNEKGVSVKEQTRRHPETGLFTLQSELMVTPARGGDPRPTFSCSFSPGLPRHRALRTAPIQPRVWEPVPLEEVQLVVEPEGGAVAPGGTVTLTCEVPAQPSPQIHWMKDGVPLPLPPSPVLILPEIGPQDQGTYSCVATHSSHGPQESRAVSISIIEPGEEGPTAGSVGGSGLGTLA
UniProt P09429: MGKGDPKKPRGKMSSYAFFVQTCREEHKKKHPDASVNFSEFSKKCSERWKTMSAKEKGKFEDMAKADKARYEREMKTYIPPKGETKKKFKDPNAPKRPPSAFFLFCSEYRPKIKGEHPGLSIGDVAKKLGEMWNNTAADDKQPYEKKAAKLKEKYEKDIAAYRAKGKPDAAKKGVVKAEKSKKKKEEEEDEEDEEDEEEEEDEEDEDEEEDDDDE

These are yes or no findings as the source states them, for the method shown. Some results given as binding are weak or reduced against the parent protein; the word gives no strength.

One experiment addresses RAGE-Fc chimera protein (UniProt Q15109). In words: BLI; RAGE-Fc (15 μg/mL) immobilised on anti-IgG (AHC) biosensors; HMGB1 constructs 0–25 μM in solution; 200 s association/dissociation; both purified.
The experiment “FR-HMGB1 1–214 (human)” addresses FR-HMGB1 1–214 (human (by the printed UniProt entry P09429)) (UniProt P09429). Put plainly: ELISA; solid-phase equilibrium (hybrid) ELISA: HMGB1 constructs coated at 40 nM in PBS (+0.5 mM TCEP for FR constructs); RAGE-Fc 0–640 nM in 10% BSA/PBS, 2 h, 4°C; anti-Human IgG HRP; both purified.
For the experiment “DS-HMGB1 1–214 (human)”, the target named is DS-HMGB1 1–214 (human (by the printed UniProt entry P09429)) (UniProt P09429). The description is as above.

With “DS-HMGB1 1–214 (from UniProt P09429 1-215)”, the binding entry in the experiment with RAGE-Fc chimera protein is “binds”.

Take “FR-HMGB1 1–214 (from UniProt P09429 1-215)”: the binding entry with RAGE-Fc chimera protein is on record as “binds”.

In the case of “RAGE-Fc chimera protein (from UniProt Q15109 23-342) (Fc fusion)”, the binding result in the experiment with FR-HMGB1 1–214 (human) and in the experiment with DS-HMGB1 1–214 (human) was “binds” each time.
